This assay deals with Notch1 (human (endogenous in DPSCs)) (UniProt P46531). In words: co-IP; anti-KAT2A, anti-Notch1 or normal IgG added to 1 mg DPSC lysate precleared with Protein G Agarose beads, 4 °C overnight; complexes analysed by western blot; endogenous proteins. A general note: In western blotting, separated proteins are transferred to a membrane and probed.

Sequences of proteins named here, by UniProt entry; tags and fusion partners are left off. Residues count along the entry.
UniProt P46531, residues 19-2555: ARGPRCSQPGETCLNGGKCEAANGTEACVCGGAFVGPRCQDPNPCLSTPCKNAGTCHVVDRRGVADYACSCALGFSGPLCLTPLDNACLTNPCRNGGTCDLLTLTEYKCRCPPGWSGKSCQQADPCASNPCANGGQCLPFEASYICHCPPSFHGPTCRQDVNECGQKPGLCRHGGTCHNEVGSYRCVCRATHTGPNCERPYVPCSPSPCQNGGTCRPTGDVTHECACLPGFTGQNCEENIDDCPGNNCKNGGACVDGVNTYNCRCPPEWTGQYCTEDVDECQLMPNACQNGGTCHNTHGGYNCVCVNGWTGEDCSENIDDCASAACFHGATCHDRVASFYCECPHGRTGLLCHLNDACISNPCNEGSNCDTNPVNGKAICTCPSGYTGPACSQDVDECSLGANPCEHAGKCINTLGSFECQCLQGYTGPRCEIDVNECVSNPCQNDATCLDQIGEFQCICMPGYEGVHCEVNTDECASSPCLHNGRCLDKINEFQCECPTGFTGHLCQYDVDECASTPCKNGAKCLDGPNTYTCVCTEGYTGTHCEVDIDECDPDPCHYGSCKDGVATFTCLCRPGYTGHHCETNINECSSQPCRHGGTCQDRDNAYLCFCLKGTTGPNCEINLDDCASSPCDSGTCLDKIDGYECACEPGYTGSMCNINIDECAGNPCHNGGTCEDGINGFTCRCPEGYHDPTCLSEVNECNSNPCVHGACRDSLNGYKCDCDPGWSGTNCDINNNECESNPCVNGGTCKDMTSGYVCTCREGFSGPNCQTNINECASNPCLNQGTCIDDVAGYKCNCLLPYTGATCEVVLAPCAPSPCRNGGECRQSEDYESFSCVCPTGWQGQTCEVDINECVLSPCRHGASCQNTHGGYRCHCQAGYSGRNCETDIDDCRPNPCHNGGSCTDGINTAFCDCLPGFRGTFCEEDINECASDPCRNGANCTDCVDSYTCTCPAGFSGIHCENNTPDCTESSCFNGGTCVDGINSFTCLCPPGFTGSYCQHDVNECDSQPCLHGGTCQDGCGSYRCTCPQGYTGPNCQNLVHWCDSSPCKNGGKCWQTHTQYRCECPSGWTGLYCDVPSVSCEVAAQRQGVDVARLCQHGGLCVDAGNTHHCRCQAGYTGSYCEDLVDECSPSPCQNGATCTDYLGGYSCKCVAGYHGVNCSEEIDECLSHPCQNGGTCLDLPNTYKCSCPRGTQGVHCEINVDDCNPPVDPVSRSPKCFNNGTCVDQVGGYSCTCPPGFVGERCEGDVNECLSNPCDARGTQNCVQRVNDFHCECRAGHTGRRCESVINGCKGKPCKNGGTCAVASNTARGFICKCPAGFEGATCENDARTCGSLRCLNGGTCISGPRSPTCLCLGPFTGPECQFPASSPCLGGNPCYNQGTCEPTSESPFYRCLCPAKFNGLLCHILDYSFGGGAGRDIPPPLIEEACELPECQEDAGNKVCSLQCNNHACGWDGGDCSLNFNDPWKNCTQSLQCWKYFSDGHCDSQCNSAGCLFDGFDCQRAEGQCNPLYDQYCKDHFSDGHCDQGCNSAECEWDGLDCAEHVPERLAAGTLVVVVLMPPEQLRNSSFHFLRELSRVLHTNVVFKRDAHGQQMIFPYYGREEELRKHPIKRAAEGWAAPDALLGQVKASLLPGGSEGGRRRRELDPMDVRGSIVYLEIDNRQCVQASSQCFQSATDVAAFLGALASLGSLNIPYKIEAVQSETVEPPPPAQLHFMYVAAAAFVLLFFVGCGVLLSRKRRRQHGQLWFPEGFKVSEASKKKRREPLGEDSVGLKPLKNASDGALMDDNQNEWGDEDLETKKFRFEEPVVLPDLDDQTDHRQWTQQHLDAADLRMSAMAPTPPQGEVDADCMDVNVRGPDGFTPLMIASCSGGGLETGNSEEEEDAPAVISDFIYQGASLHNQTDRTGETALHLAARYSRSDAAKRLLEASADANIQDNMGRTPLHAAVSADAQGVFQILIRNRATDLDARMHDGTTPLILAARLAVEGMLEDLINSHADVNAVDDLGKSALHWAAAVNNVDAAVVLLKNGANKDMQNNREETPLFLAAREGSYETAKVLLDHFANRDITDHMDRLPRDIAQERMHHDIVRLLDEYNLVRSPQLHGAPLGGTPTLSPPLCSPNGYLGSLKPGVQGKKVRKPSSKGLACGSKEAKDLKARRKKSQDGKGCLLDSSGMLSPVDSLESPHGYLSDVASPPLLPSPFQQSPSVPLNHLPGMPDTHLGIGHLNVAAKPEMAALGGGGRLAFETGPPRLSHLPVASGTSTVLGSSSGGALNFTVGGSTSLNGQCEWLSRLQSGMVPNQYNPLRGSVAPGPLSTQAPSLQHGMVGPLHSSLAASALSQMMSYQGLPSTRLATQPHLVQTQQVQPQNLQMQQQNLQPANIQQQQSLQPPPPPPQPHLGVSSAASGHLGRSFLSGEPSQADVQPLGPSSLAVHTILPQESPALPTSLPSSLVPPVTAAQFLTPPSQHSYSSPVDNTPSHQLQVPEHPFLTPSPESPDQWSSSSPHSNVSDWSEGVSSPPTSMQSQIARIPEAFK
UniProt Q92830: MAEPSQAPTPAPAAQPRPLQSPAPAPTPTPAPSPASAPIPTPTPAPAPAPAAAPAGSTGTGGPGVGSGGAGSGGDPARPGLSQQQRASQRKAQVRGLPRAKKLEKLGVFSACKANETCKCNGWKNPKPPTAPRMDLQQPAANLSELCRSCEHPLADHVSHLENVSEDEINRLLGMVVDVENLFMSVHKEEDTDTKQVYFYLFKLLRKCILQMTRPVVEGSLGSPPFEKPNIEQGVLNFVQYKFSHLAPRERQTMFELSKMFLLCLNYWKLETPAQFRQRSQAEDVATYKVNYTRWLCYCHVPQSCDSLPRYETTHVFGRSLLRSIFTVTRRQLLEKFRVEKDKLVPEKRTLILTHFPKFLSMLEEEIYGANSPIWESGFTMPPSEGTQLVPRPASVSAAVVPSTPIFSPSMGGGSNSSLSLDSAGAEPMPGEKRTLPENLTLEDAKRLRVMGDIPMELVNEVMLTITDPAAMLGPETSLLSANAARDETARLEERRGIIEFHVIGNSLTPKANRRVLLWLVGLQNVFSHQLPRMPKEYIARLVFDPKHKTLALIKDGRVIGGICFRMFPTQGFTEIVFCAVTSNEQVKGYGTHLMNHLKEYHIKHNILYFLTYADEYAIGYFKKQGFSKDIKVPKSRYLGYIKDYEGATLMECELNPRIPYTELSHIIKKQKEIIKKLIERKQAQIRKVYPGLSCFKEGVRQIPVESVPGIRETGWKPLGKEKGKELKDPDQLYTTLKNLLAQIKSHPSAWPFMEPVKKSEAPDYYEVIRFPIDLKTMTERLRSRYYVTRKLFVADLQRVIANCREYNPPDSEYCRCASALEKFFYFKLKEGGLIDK

Results on 1 substance are retold here after paper PMC10981825.

No constants are given. Whether binding was seen depends on the method and setting. Binding seen in cells or lysates may run through a third protein. Some binding calls cover weakened binding; strength is not graded here.

“KAT2A (from UniProt Q92830 1-837) (enzyme)”: the binding result is “binds”.
